Data as given in PubChem BioAssay AID180 (DTP/NCI, 2004).
The list does not hold the whole screen: it gathers tests that were run many times, whatever their T/C, doses with no T/C, and many T/C values between a quarter and a half above the control. Other doses and runs of a compound stand elsewhere. T/C gives the treated animals as a percentage of the vehicle group. Schedules are NCI's codes, read here as Q, the interval in days (D) or hours (H), X, the number of doses. Some doses were run more than once; their values stand side by side, smallest first. Some T/C values are followed by the survivors on the day toxicity was checked, most often the fifth; where none is given, no animal had died by that day. Some entries give survivors of the animals treated and no T/C: the source holds a T/C of zero for them, seemingly a mark for toxic or unscored doses. Survivors were counted at the toxicity check, usually on the fifth day, unless a day is given; later deaths do not show. Starred links: 1 amine or outer side, 2 acyl side, 3 side chain; linkers in the order of their positions; H or OH if unused. Positions of bridges follow the written chain, without caps; N, C: chain ends. Non-standard residues stand in square brackets, D forms with d. Residues, ends and D or L forms follow the SMILES beside them. Chains are numbered I, II in the order given. Actinocin(9to1) = Cc1c2oc3c(C)ccc(C(=O)[*:1])c3nc-2c(C(=O)[*:2])c(N)c1=O; aThr = C[C@H](O)[C@H](N)C(=O)O; NMeV = CN[C@H](C(=O)O)C(C)C; Sar = CNCC(=O)O

System: BDF1 mice, Adenocarcinoma 755 s.c., tumor weight T/C
Experiment: NCI In Vivo Anticancer Drug Screen. Data for tumor model Adenocarcinoma 755 (subcutaneous) in B6D2F1 (BDF1) mice
Conditions: T/C endpoint: mean tumor weight, schedule: Q01DX011 (ip), higher T/C = larger tumour; for T/C: evaluated on day 12
Summary of the method: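 Compound activity was tested in mice carrying transplanted tumors. Survival or tumor size was measured, and each value is the treated-group measurement divided by that of the vehicle-treated control group (T/C).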

[1] = dose: 60.0 mg/kg/injection, vehicle: carboxymethylcellulose (CMC)
[2] = dose: 120.0 mg/kg/injection, vehicle: carboxymethylcellulose (CMC)
[3] = dose: 240.0 mg/kg/injection, vehicle: carboxymethylcellulose (CMC)

SMILES: S=P(N1CCCCCC1)(N1CC1)N1CC1
- survivor count (dose: 4.0 mg/kg/injection, vehicle: carboxymethylcellulose (CMC)): 3 of 10
- survivor count (dose: 27.0 mg/kg/injection, vehicle: methylcellulose (MC)): 4 of 10
- survivor count [1]: 0 of 10
- survivor count (dose: 81.0 mg/kg/injection, vehicle: saline): 2 of 10

SMILES: Nc1[nH]c(=O)[nH]c(=O)c1C(=O)CCl
- survivor count [1]: 5 of 10
- survivor count [2]: 1 of 10
- survivor count [3]: 0 of 10

SMILES: Cc1cc(NC(=O)c2ccc(C(=O)Nc3ccc(N=Nc4cc(S(=O)(=O)O)c5cccc(S(=O)(=O)O)c5c4)c(C)c3)cc2)ccc1N=Nc1cc(S(=O)(=O)O)c2cccc(S(=O)(=O)O)c2c1
- survivor count [1]: 4 of 10
- survivor count [2]: 2 of 10
- survivor count [3]: 1 of 10

SMILES: CCC(=O)c1cc2c(cc1CC)C(C)(C)CCC2(C)C
- survivor count (dose: 200.0 mg/kg/injection, vehicle: carboxymethylcellulose (CMC)): 5 of 10
- survivor count (dose: 400.0 mg/kg/injection, vehicle: carboxymethylcellulose (CMC)): 0 of 10 and 5 of 10

SMILES: Brc1ncc2[nH]cnc2n1
- survivor count (dose: 225.0 mg/kg/injection, vehicle: methylcellulose (MC)): 2 of 10

SMILES: Cc1nnc2ncnc(N)c2n1
- survivor count (dose: 45.0 mg/kg/injection, vehicle: carboxymethylcellulose (CMC)): 0 of 10
- survivor count [1]: 0 of 10

SMILES: Cc1c2oc3c(C)ccc(C(=O)N[C@@H]4C(=O)N[C@H](C(C)C)C(=O)N5CCC[C@H]5C(=O)N(C)CC(=O)N(C)[C@@H](C(C)C)C(=O)O[C@H]4C)c3nc-2c(C(=O)N[C@@H]2C(=O)N[C@H](C(C)C)C(=O)N3CCC[C@H]3C(=O)N(C)CC(=O)N(C)[C@@H](C(C)C)C(=O)O[C@H]2C)c(N)c1=O (I: [aThr][dV]P[Sar][NMeV] / II: [aThr][dV]P[Sar][NMeV]; ester I:1-I:C, II:1-II:C; linker I:N-II:N via Actinocin(9to1))
- T/C (dose: 0.01 mg/kg/injection, vehicle: carboxymethylcellulose (CMC)): 125 and 131 % of control
- survivor count (dose: 0.05 mg/kg/injection, vehicle: carboxymethylcellulose (CMC)): 1 of 10
- survivor count (dose: 0.05 mg/kg/injection, vehicle: saline): 0 of 10
- survivor count (dose: 80.0 micrograms/kg/injection, vehicle: carboxymethylcellulose (CMC)): 4 of 10
- survivor count (dose: 95.0 micrograms/kg/injection, vehicle: carboxymethylcellulose (CMC)): 2 of 10

SMILES: CCSCCC(N)C(=O)O (centres undefined)
- T/C (dose: 10.25 mg/kg/injection, vehicle: carboxymethylcellulose (CMC)): 142 % of control [9 of 10 alive]
- T/C (dose: 41.0 mg/kg/injection, vehicle: carboxymethylcellulose (CMC)): 144 % of control
- survivor count (dose: 75.0 mg/kg/injection, vehicle: methylcellulose (MC)): 5 of 10
- survivor count (dose: 150.0 mg/kg/injection, vehicle: methylcellulose (MC)): 5 of 10
- survivor count (dose: 452.0 mg/kg/injection, vehicle: carboxymethylcellulose (CMC)): 5 of 10
- survivor count (dose: 452.0 mg/kg/injection, vehicle: other): 6 of 10

SMILES: Cn1c(=O)c2c(nc(N/N=C/C(Cl)Cl)n2C)n(C)c1=O
- survivor count (dose: 25.0 mg/kg/injection, vehicle: methylcellulose (MC)): 2 of 10 and 4 of 10

SMILES: Nc1ncnc2[nH]ncc12
- T/C (dose: 2.83 mg/kg/injection, vehicle: carboxymethylcellulose (CMC)): 126 % of control
- survivor count (dose: 11.3 mg/kg/injection, vehicle: carboxymethylcellulose (CMC)): 6 of 10
- survivor count (dose: 12.5 mg/kg/injection, vehicle: carboxymethylcellulose (CMC)): 1 of 10

SMILES: CCCCSc1ncnc2c1ncn2C1CCCCO1 (centres undefined)
- survivor count (dose: 394.0 mg/kg/injection, vehicle: carboxymethylcellulose (CMC)): 0 of 10

SMILES: CN(C)N=Nc1ccc(-c2ccc(N=NN(C)C)cc2)cc1
- survivor count (dose: 250.0 mg/kg/injection, vehicle: other): 4 of 10

SMILES: Cn1cnc2c(ncn2C2CC(O)C(CO)O2)c1=O (centres undefined)
- T/C (dose: 30.0 mg/kg/injection, vehicle: saline): 135 % of control
- T/C (dose: 60.0 mg/kg/injection, vehicle: saline): 142 % of control
